The target of test [1] is Arabidopsis CBL1 (AtCBL1) as two-hybrid fusion of Figure 4B (Arabidopsis) (UniProt O81445). In words: two-hybrid; Gal4p-based system, yeast strain Y190; growth on SC-His-Leu-Trp with 25 mM 3-amino-1,2,4-aminotriazole (HIS3) and beta-galactosidase filter-lift assay.
For test [2], the target named is Arabidopsis bZIP63 as bZIP63-YFP^N and bZIP63-YFP^C (Arabidopsis) (UniProt B9DGI8). In words: split reporter; BiFC (split YFP) in onion epidermal cells, particle bombardment, 18 h at 23°C, confocal microscopy.

Protein sequences, listed by entry. Tags and fused reporters are not part of them.
UniProt O81445: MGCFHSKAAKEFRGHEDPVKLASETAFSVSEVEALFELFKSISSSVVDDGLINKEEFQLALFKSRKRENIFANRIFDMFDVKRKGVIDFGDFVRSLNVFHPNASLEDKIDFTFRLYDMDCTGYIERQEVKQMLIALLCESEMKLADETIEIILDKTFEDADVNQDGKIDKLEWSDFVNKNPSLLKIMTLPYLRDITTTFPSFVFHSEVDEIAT

No constants are given. Whether binding was seen depends on the method and setting. For some assays here: Binding seen in cells or lysates may run through a third protein. Some entries that bind do so weakly or less than the wild type. Tags and fused reporters may be left off the sequences shown.

This is an account of results in article PMC6123687.

B1: AD⋅CIPK8 (pGAD⋅CIPK8), Arabidopsis CIPK8 in the Gal4 activation domain vector (protein, UniProt Q9STV4 1-445)
chain: MVVRKVGKYELGRTIGEGTFAKVKFAQNTETGESVAMKIVDRSTIIKRKMVDQIKREISIMKLVRHPCVVRLYEVLASRTKIYIILEYITGGELFDKIVRNGRLSESEARKYFHQLIDGVDYCHSKGVYHRDLKPENLLLDSQGNLKISDFGLSALPEQGVTILKTTCGTPNYVAPEVLSHKGYNGAVADIWSCGVILYVLMAGYLPFDEMDLPTLYSKIDKAEFSCPSYFALGAKSLINRILDPNPETRITIAEIRKDEWFLKDYTPVQLIDYEHVNLDDVYAAFDDPEEQTYAQDGTRDTGPLTLNAFDLIILSQGLNLATLFDRGKDSMKHQTRFISHKPANVVLSSMEVVSQSMGFKTHIRNYKMRVEGLSANKTSHFSVILEVFKVAPSILMVDIQNAAGDAEEYLKFYKTFCSKLDDIIWKPPDASMRNRVTKAKSKRR
With B1, the binding result in test [1] is recorded as “binds”.

B2: AD⋅CIPK18 (pGAD⋅CIPK18), Arabidopsis CIPK18 in the Gal4 activation domain vector (protein, UniProt Q9LP51 1-520)
chain: MAQALAQPPLVVTTVVPDPPPPPPPPHPKPYALRYMADLLGRIGIMDTDKDGNISPQSPRSPRSPRNNILMGKYELGKLLGHGTFAKVYLAQNIKSGDKVAIKVIDKEKIMKSGLVAHIKREISILRRVRHPYIVHLFEVMATKSKIYFVMEYVGGGELFNTVAKGRLPEETARRYFQQLISSVSFCHGRGVYHRDLKPENLLLDNKGNLKVSDFGLSAVAEQLRQDGLCHTFCGTPAYIAPEVLTRKGYDAAKADVWSCGVILFVLMAGHIPFYDKNIMVMYKKIYKGEFRCPRWFSSDLVRLLTRLLDTNPDTRITIPEIMKNRWFKKGFKHVKFYIEDDKLCREDEDEEEEASSSGRSSTVSESDAEFDVKRMGIGSMPRPSSLNAFDIISFSSGFDLSGLFEEEGGEGTRFVSGAPVSKIISKLEEIAKIVSFTVRKKEWSLRLEGCREGAKGPLTIAAEIFELTPSLVVVEVKKKGGDREEYEEFCNKELRPELEKLIHEEVVVEEALYLPSDTE
As to B2, the binding entry in test [1] is “binds”.

B3: AD⋅CIPK11 (pGAD⋅CIPK11), Arabidopsis CIPK11 in the Gal4 activation domain vector (protein, UniProt O22932 1-435)
chain: MPEIEIAAGSGDNNDALFGKYELGKLLGCGAFAKVFHARDRRTGQSVAVKILNKKKLLTNPALANNIKREISIMRRLSHPNIVKLHEVMATKSKIFFAMEFVKGGELFNKISKHGRLSEDLSRRYFQQLISAVGYCHARGVYHRDLKPENLLIDENGNLKVSDFGLSALTDQIRPDGLLHTLCGTPAYVAPEILSKKGYEGAKVDVWSCGIVLFVLVAGYLPFNDPNVMNMYKKIYKGEYRFPRWMSPDLKRFVSRLLDINPETRITIDEILKDPWFVRGGFKQIKFHDDEIEDQKVESSLEAVKSLNAFDLISYSSGLDLSGLFAGCSNSSGESERFLSEKSPEMLAEEVEGFAREENLRMKKKKEEEYGFEMEGQNGKFGIGICISRLNDLLVVVEARRRGGDGDCYKEMWNGKLRVQLIRVCDQTSSTNAAI
For the molecule B3, the binding result in test [1] is recorded as “binds”.

B4: AD⋅CIPK23 (pGAD⋅CIPK23), Arabidopsis CIPK23 in the Gal4 activation domain vector (protein, UniProt Q93VD3 1-482)
chain: MASRTTPSRSTPSRSTPSGSSSGGRTRVGKYELGRTLGEGTFAKVKFARNVENGDNVAIKVIDKEKVLKNKMIAQIKREISTMKLIKHPNVIRMFEVMASKTKIYFVLEFVTGGELFDKISSNGRLKEDEARKYFQQLINAVDYCHSRGVYHRDLKPENLLLDANGALKVSDFGLSALPQQVREDGLLHTTCGTPNYVAPEVINNKGYDGAKADLWSCGVILFVLMAGYLPFEDSNLTSLYKKIFKAEFTCPPWFSASAKKLIKRILDPNPATRITFAEVIENEWFKKGYKAPKFENADVSLDDVDAIFDDSGESKNLVVERREEGLKTPVTMNAFELISTSQGLNLGSLFEKQMGLVKRKTRFTSKSSANEIVTKIEAAAAPMGFDVKTNNYKMKLTGEKSGRKGQLAVATEVFQVAPSLYMVEMRKSGGDTLEFHKFYKNLTTGLKDIVWKTIDEEKEEGTDGGGTNGAMANRTIAKQST
As to B4, the binding entry in test [1] is reported as “binds”.

B5: AD⋅CIPK12 (pGAD⋅CIPK12), Arabidopsis CIPK12 in the Gal4 activation domain vector (protein, UniProt Q9SN43 1-489)
chain: MAEKITRETSLPKERSSPQALILGRYEMGKLLGHGTFAKVYLARNVKTNESVAIKVIDKEKVLKGGLIAHIKREISILRRVRHPNIVQLFEVMATKAKIYFVMEYVRGGELFNKVAKGRLKEEVARKYFQQLISAVTFCHARGVYHRDLKPENLLLDENGNLKVSDFGLSAVSDQIRQDGLFHTFCGTPAYVAPEVLARKGYDAAKVDIWSCGVILFVLMAGYLPFHDRNVMAMYKKIYRGEFRCPRWFSTELTRLLSKLLETNPEKRFTFPEIMENSWFKKGFKHIKFYVEDDKLCNVVDDDELESDSVESDRDSAASESEIEYLEPRRRVGGLPRPASLNAFDIISFSQGFDLSGLFDDDGEGSRFVSGAPVSKIISKLEEIAKVVSFTVRKKDCRVSLEGSRQGVKGPLTIAAEIFELTPSLVVVEVKKKGGDKTEYEDFCNNELKPKLQNLTADDVVAEPVAVSAVDETAIPNSPTISFLPSDTE
Regarding B5, in test [1], the binding result is recorded as “binds”.

B6: Arabidopsis bZIP63 as bZIP63-YFP^N and bZIP63-YFP^C (protein, UniProt B9DGI8 1-314)
chain: MEKVFSDEEISGNHHWSVNGMTSLNRSASEWAFNRFIQESSAAADDGESTTACGVSVSSPPNVPVDSEEYRAFLKSKLNLACAAVAMKRGTFIKPQDTSGRSDNGGANESEQASLASSKATPMMSSAITSGSELSGDEEEADGETNMNPTNVKRVKRMLSNRESARRSRRRKQAHLSELETQVSQLRVENSKLMKGLTDVTQTFNDASVENRVLKANIETLRAKVKMAEETVKRLTGFNPMFHNMPQIVSTVSLPSETSNSPDTTSSQVTTPEIISSGNKGKALIGCKMNRTASMRRVESLEHLQKRIRSVGDQ
As to B6, in test [2], the binding result is “binds”.

B7: AD⋅CIPK5 (pGAD⋅CIPK5), Arabidopsis CIPK5 in the Gal4 activation domain vector (protein, UniProt Q9LEU7 1-445)
chain: MEEERRVLFGKYEMGRLLGKGTFAKVYYGKEIIGGECVAIKVINKDQVMKRPGMMEQIKREISIMKLVRHPNIVELKEVMATKTKIFFVMEFVKGGELFCKISKGKLHEDAARRYFQQLISAVDYCHSRGVSHRDLKPENLLLDENGDLKISDFGLSALPEQILQDGLLHTQCGTPAYVAPEVLKKKGYDGAKADIWSCGVVLYVLLAGCLPFQDENLMNMYRKIFRADFEFPPWFSPEARRLISKLLVVDPDRRISIPAIMRTPWLRKNFTPPLAFKIDEPICSQSSKNNEEEEEDGDCENQTEPISPKFFNAFEFISSMSSGFDLSSLFESKRKVQSVFTSRSSATEVMEKIETVTKEMNMKVKRTKDFKVKMEGKTEGRKGRLSMTAEVFEVAPEISVVEFCKSAGDTLEYDRLYEEEVRPALNDIVWSWHGDNNNTSSEDC
For the molecule B7, the binding entry in test [1] was “binds”.

B8: AD⋅CIPK17 (pGAD⋅CIPK17), Arabidopsis CIPK17 in the Gal4 activation domain vector (protein, UniProt Q94C40 1-432)
chain: MVIKGMRVGKYELGRTLGEGNSAKVKFAIDTLTGESFAIKIIEKSCITRLNVSFQIKREIRTLKVLKHPNIVRLHEVLASKTKIYMVLECVTGGDLFDRIVSKGKLSETQGRKMFQQLIDGVSYCHNKGVFHRDLKLENVLLDAKGHIKITDFGLSALSQHYREDGLLHTTCGSPNYVAPEVLANEGYDGAASDIWSCGVILYVILTGCLPFDDANLAVICRKIFKGDPPIPRWISLGAKTMIKRMLDPNPVTRVTIAGIKAHDWFKHDYTPSNYDDDDDVYLIQEDVFMMKEYEEEKSPDSPTIINAFQLIGMSSFLDLSGFFETEKLSERQIRFTSNSLAKDLLENIETIFTEMGFCLQKKHAKLKAIKEESTQKRQCGLSVTAEVFEISPSLNVVELRKSHGDSSLYKQLYERLLNELGSSSQVQELLA
Turning to B8, in test [1], the binding result was “binds”.

B9: AD⋅CIPK24 (pGAD⋅CIPK24), Arabidopsis CIPK24 in the Gal4 activation domain vector (protein, UniProt Q9LDI3 1-446)
chain: MTKKMRRVGKYEVGRTIGEGTFAKVKFARNTDTGDNVAIKIMAKSTILKNRMVDQIKREISIMKIVRHPNIVRLYEVLASPSKIYIVLEFVTGGELFDRIVHKGRLEESESRKYFQQLVDAVAHCHCKGVYHRDLKPENLLLDTNGNLKVSDFGLSALPQEGVELLRTTCGTPNYVAPEVLSGQGYDGSAADIWSCGVILFVILAGYLPFSETDLPGLYRKINAAEFSCPPWFSAEVKFLIHRILDPNPKTRIQIQGIKKDPWFRLNYVPIRAREEEEVNLDDIRAVFDGIEGSYVAENVERNDEGPLMMNAFEMITLSQGLNLSALFDRRQDFVKRQTRFVSRREPSEIIANIEAVANSMGFKSHTRNFKTRLEGLSSIKAGQLAVVIEIYEVAPSLFMVDVRKAAGETLEYHKFYKKLCSKLENIIWRATEGIPKSEILRTITF
Turning to B9, in test [1], the binding entry was “binds”.

B10: AD⋅CIPK1 (pGAD⋅AtCIPK1), Arabidopsis CBL-interacting protein kinase 1 in the Gal4 activation domain vector (protein, UniProt Q8RWC9 1-444)
chain: MVRRQEEEKKAEKGMRLGKYELGRTLGEGNFGKVKFAKDTVSGHSFAVKIIDKSRIADLNFSLQIKREIRTLKMLKHPHIVRLHEVLASKTKINMVMELVTGGELFDRIVSNGKLTETDGRKMFQQLIDGISYCHSKGVFHRDLKLENVLLDAKGHIKITDFGLSALPQHFRDDGLLHTTCGSPNYVAPEVLANRGYDGAASDIWSCGVILYVILTGCLPFDDRNLAVLYQKICKGDPPIPRWLSPGARTMIKRMLDPNPVTRITVVGIKASEWFKLEYIPSIPDDDDEEEVDTDDDAFSIQELGSEEGKGSDSPTIINAFQLIGMSSFLDLSGFFEQENVSERRIRFTSNSSAKDLLEKIETAVTEMGFSVQKKHAKLRVKQEERNQKGQVGLSVTAEVFEIKPSLNVVELRKSYGDSCLYRQLYERLLKDVGTSSPEQEIVT
On to B10, for which the binding result in test [1] is on record as “binds”.

B11: AD⋅CIPK7 (pGAD⋅CIPK7), Arabidopsis CIPK7 in the Gal4 activation domain vector (protein, UniProt Q9XIW0 1-429)
chain: MESLPQPQNQSSPATTPAKILLGKYELGRRLGSGSFAKVHLARSIESDELVAVKIIEKKKTIESGMEPRIIREIDAMRRLRHHPNILKIHEVMATKSKIYLVMELASGGELFSKVLRRGRLPESTARRYFQQLASALRFSHQDGVAHRDVKPQNLLLDEQGNLKVSDFGLSALPEHLQNGLLHTACGTPAYTAPEVISRRGYDGAKADAWSCGVILFVLLVGDVPFDDSNIAAMYRKIHRRDYRFPSWISKQAKSIIYQMLDPNPVTRMSIETVMKTNWFKKSLETSEFHRNVFDSEVEMKSSVNSITAFDLISLSSGLDLSGLFEAKKKKERRFTAKVSGVEVEEKAKMIGEKLGYVVKKKMMKKEGEVKVVGLGRGRTVIVVEAVELTVDVVVVEVKVVEGEEDDSRWSDLITELEDIVLSWHNDIM
In the case of B11, the binding result in test [1] is on record as “binds”.
